Experimental data from paper doi:10.1101/2020.05.02.073957.

The chains behind the UniProt entries cited, without tags or fusion partners.
UniProt P35293: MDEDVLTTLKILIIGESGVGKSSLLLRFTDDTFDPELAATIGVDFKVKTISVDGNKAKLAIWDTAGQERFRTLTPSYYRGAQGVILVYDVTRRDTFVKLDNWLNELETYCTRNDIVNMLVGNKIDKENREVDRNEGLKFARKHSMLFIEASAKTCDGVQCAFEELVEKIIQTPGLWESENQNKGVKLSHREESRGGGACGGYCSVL
UniProt Q9CZW4: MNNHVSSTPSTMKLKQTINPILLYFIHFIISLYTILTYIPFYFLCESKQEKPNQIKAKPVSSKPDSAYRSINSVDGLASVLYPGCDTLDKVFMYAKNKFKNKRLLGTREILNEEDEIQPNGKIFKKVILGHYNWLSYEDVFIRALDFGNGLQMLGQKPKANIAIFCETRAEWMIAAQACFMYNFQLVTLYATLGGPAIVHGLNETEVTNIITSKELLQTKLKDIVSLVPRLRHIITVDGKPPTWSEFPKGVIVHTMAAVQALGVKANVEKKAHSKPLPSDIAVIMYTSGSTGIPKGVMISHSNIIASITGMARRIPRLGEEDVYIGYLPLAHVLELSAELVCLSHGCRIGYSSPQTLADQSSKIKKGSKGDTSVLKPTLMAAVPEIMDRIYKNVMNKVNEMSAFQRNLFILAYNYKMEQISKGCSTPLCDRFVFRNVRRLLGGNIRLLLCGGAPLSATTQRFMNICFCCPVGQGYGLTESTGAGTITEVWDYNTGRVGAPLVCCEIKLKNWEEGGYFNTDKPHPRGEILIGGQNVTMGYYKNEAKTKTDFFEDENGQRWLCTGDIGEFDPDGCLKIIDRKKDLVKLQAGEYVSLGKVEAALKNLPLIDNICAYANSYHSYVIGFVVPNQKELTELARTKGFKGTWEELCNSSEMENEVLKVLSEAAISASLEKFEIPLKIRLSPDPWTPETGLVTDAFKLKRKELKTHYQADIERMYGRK

Legend:
[1] = biological target: FLAG-Rab18 (overexpressed in C2C12 cells) (mouse) (UniProt P35293); assay: affinity purification with mass spectrometry
[2] = biological target: FLAG-Rab18 (overexpressed in C2C12 cells) (mouse) (UniProt P35293); assay: affinity purification with mass spectrometry; remark: listed apart in the source

binding [1]: binds
Molecule: acyl-CoA synthetase long-chain family member 3 (ACSL3), endogenous in C2C12 lipid droplets (from UniProt Q9CZW4 1-720) (enzyme)

binding [2]: binds
B1: perilipin 2 (PLIN2), endogenous in C2C12 lipid droplets (protein, UniProt P43883 1-425)
chain: MAAAVVDPQQSVVMRVANLPLVSSTYDLVSSAYVSTKDQYPYLRSVCEMAEKGVKTVTSAAMTSALPIIQKLEPQIAVANTYACKGLDRMEERLPILNQPTSEIVASARGAVTGAKDVVTTTMAGAKDSVASTVSGVVDKTKGAVTGSVERTKSVVNGSINTVLGMVQFMNSGVDNAITKSELLVDQYFPLTQEELEMEAKKVEGFDMVQKPSNYERLESLSTKLCSRAYHQALSRVKEAKQKSQETISQLHSTVHLIEFARKNMHSANQKIQGAQDKLYVSWVEWKRSIGYDDTDESHCVEHIESRTLAIARNLTQQLQTTCQTVLVNAQGLPQNIQDQAKHLGVMAGDIYSVFRNAASFKEVSDGVLTSSKGQLQKMKESLDEVMDYFVNNTPLNWLVGPFYPQSTEVNKASLKVQQSEVKAQ

Where two headings read alike, the source gives them in different places. Results are given in words; binding and its absence hold for the method and conditions named. Binding seen in cells or lysates may run through a third protein. These calls come from enrichment with a bait or labelling near it, and not all partners need be listed. One block for each molecule: values may come before it.
